# In patent US20100015154A1:
# These are yes or no findings as the source states them, for the method shown. Some binding calls cover weakened binding; strength is not graded here.
# B1: monoclonal antibody M2 1003 (antibody, V domains shown)
# VH: SGAELVRPGASVKMSCKASGYTFTTYTMHWVKQTPGQGLEWIGAIYPGNGGTSYNQKFKGMATLTVDTSSSTAYMQISSLTSEDSAVYFCARGGDKYGMDYWGQGTTVTVSS
# VL: DIQMTQSPSSLAVSAGEKVTMSCKSSQSLLNSRTRKNYLAWYQQKPGQSPKLLIYWASTRESGVPDRFTGSGSGTDFTLTISSVQAEDLAVYYCKQSYILPTFGGGTKLEIKR
# Molecular target: T1, Peptide 2a (human)
# T1 sequence (peptide): RKGVYVPYTQGKWEGE
# Assay: solid-phase anti-peptide ELISA (FIG. 13)
binder,measurement,value
B1,binding,binds
